PubChem BioAssay AID493246 – Drosophila RNAi Screening Center – 2011
Aim: 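Genome-wide search for dsRNAs that reduce cell number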 (primary screen). Cell system: Drosophila Kc and S2R+ cells. Reagents: long dsRNA against Drosophila genes. Detection: 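Cell number per well after knock-down, printed as raw plate values; calls were based on per-plate z-scores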. Direction: Kc cell number and S2R+ cell number: higher = more cells remaining. Rule for the call: 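Active when the per-plate z-score of cell number is 3 or more in the direction of fewer cells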.
The deposit covers about 21,000 reagents; below is an unselected part of those with a known target gene and a result. Over the whole deposit, 429 (2%) got an active call. 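Values are raw and not normalised between plates; calls rest on per-plate z-scores that were not deposited.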 Unmarked entries are inactive. Names joined by + are all predicted targets of the reagent. Not stated in the record: the amount of reagent, the time to read-out.

Target gene	DRSC id	Kc cell number, rep 1	Kc cell number, rep 2	S2R+ cell number, rep 1	S2R+ cell number, rep 2
XNP	DRSC15594	5.00e5		8.16e5	
Cpsf5	DRSC10374	1.30e6	1.49e6	1.24e6	1.06e6
Fas1	DRSC16669	1.47e6	1.45e6	1.04e6	1.14e6
serp	DRSC11035	1.29e6	1.40e6	1.29e6	1.33e6
serp	DRSC11036	1.33e6	1.46e6	1.31e6	1.37e6
b	DRSC03487	1.83e6	1.89e6	1.43e6	1.56e6
CG3817	DRSC15515	1.46e6	1.52e6	1.02e6	1.17e6
CG15390	DRSC00404	1.39e6	1.45e6	1.08e6	1.19e6
CG42568 + DnaJ-60	DRSC04207	1.48e6	1.55e6	1.17e6	1.13e6
CG42568 + DnaJ-60	DRSC04611	1.34e6	1.40e6	1.15e6	1.25e6
Mettl14	DRSC03073	1.35e6	1.46e6	6.63e5	7.86e5
CG7512	DRSC10863	1.54e6	1.78e6	1.42e6	1.54e6
Nmdar1	DRSC12071	1.38e6	1.53e6	1.09e6	1.22e6
Nmdar1	DRSC12356	1.45e6	1.57e6	1.29e6	1.39e6
CG17187	DRSC15181	1.51e6	1.54e6	1.30e6	1.37e6
CG8245	DRSC04901	1.63e6	1.69e6	1.24e6	1.27e6
seq	DRSC06863	1.55e6	1.47e6	9.92e5	1.07e6
CG33232 (retired record)	DRSC08187	1.39e6	1.49e6	1.30e6	1.37e6
CG33232 (retired record)	DRSC08495	1.27e6	1.57e6	1.00e6	1.17e6
tws	DRSC12767	1.44e6	1.36e6	1.05e6	1.16e6
tws	DRSC17092	1.73e6	1.88e6	1.40e6	1.49e6
CG8852	DRSC00719	1.51e6	1.41e6	1.12e6	1.26e6
yellow-d	DRSC04589	1.52e6	1.65e6	1.36e6	1.36e6
Zw10	DRSC18793	5.06e5		7.47e5	
CG9970	DRSC08644	1.58e6	1.43e6	1.08e6	1.19e6
l(2)05714	DRSC03118	1.35e6	1.39e6	6.88e5	7.11e5
ago	DRSC08463	1.60e6	1.76e6	1.22e6	1.13e6
CG1360	DRSC06406	1.52e6	1.57e6	1.32e6	1.39e6
CG32845	DRSC07867	1.46e6	1.40e6	9.79e5	1.16e6
ifc	DRSC03549	1.21e6	1.27e6	7.14e5	9.52e5
CG13255	DRSC11702	1.27e6	1.38e6	1.28e6	1.33e6
CG13545	DRSC04187	1.62e6	1.74e6	1.40e6	1.53e6
Hel25E	DRSC03342	9.78e5	1.07e6	3.52e5	6.92e5
CG13358	DRSC18534	1.50e6	1.54e6	9.95e5	1.14e6
Prim1	DRSC11137	1.49e6	1.42e6	1.07e6	1.12e6
I-2	DRSC11194	1.78e6	1.65e6	9.88e5	1.10e6
CG13043	DRSC09924	1.51e6	1.51e6	1.24e6	1.32e6
Su(z)12	DRSC11293	1.28e6	1.35e6	1.28e6	1.39e6
Osi16	DRSC12135	1.57e6	1.70e6	1.33e6	1.55e6
CG13135	DRSC02232	1.51e6	1.50e6	1.12e6	1.21e6
tst	DRSC14212	1.56e6	1.67e6	1.18e6	1.31e6
CG8654	DRSC07231	1.34e6	1.33e6	1.11e6	1.10e6
CG32808	DRSC17689	1.35e6	1.49e6	1.07e6	1.08e6
NtR	DRSC04628	1.66e6	1.70e6	1.32e6	4.62e5
CG17931 + CG42446	DRSC15293	1.22e6	1.28e6	1.16e6	1.29e6
CG15708	DRSC06579	1.47e6	1.52e6	1.11e6	1.23e6
CG6154	DRSC15977	1.74e6	1.89e6	1.05e6	1.17e6
Nrd1	DRSC19830	5.46e5		8.21e5	
Orc6	DRSC07497	1.74e6	1.76e6	1.44e6	1.93e6
MBD-like	DRSC16996	1.55e6	1.52e6	1.18e6	1.29e6
CR32745	DRSC17442	1.12e6	1.38e6	1.06e6	1.06e6
CG13022	DRSC09902	1.31e6	1.47e6	1.33e6	1.42e6
ap	DRSC04917	1.42e6	1.47e6	1.01e6	1.10e6
CG34025	DRSC08014	1.52e6	1.61e6	1.07e6	1.23e6
CG4575 (retired record)	DRSC18372	1.49e6	1.59e6	1.07e6	1.19e6
CG11147	DRSC02129	1.43e6	1.36e6	1.12e6	1.26e6
RhoGAP100F	DRSC15409	4.71e5		7.57e5	
Ir20a	DRSC20506	1.47e6	1.50e6	1.01e6	1.12e6
prtp	DRSC19804	1.28e6	1.43e6	1.04e6	1.15e6
